The values below come from patent US11903955B2, “Methods of treating heart failure with reduced ejection fraction” (ASTRAZENECA AB, priority 2019, dated 2024).

The subject of this data set is patients with chronic heart failure with reduced ejection fraction (LVEF ≤40%). How it is done: Data from all randomly assigned patients were included in the analyses of the primary and secondary outcomes, according to the intention-to-treat principle. Baseline characteristics were summarized as means and standard deviations, medians and inter-quartile ranges, or percentages. Longitudinal measures, such as glycated hemoglobin level (HbA1c) and body weight, were analyzed using mixed model for repeated measurements, and the least-squares mean differences between treatment groups were estimated, together with 95% confidence intervals. Time-to-event data were evaluated with the use of Kaplan-Meier estimates and Cox proportional hazards models, stratified by diabetes status, with history of heart failure hospitalization and treatment as fixed-effect factors (for the renal endpoint, baseline eGFR was included instead of history of heart failure hospitalization); hazard ratios, 95% confidence intervals, and two-sided P values were calculated with the use of the Cox models.

Where the note is “baseline to 8 month (Visit 6)”, `CCOc1ccc(Cc2cc([C@@H]3O[C@H](CO)[C@@H](O)[C@H](O)[C@H]3O)ccc2Cl)cc1` [Dapagliflozin, dapagliflozin] gave a Change in hematocrit of 2.31 ± 3.90%. For the same molecule, the “Hematocrit, between group difference (95% CI)” value (baseline to 8 month, dapagliflozin vs placebo) is 2.49 (2.26 to 2.73), p < 0.001%.
